According to PMC10702821:

Target: T1, 53BP1-V5 (endogenous 53BP1 with a biallelic V5-epitope tag at the C-terminus) (human (endogenous in hTERT-RPE1)), Q12888
T1 chain: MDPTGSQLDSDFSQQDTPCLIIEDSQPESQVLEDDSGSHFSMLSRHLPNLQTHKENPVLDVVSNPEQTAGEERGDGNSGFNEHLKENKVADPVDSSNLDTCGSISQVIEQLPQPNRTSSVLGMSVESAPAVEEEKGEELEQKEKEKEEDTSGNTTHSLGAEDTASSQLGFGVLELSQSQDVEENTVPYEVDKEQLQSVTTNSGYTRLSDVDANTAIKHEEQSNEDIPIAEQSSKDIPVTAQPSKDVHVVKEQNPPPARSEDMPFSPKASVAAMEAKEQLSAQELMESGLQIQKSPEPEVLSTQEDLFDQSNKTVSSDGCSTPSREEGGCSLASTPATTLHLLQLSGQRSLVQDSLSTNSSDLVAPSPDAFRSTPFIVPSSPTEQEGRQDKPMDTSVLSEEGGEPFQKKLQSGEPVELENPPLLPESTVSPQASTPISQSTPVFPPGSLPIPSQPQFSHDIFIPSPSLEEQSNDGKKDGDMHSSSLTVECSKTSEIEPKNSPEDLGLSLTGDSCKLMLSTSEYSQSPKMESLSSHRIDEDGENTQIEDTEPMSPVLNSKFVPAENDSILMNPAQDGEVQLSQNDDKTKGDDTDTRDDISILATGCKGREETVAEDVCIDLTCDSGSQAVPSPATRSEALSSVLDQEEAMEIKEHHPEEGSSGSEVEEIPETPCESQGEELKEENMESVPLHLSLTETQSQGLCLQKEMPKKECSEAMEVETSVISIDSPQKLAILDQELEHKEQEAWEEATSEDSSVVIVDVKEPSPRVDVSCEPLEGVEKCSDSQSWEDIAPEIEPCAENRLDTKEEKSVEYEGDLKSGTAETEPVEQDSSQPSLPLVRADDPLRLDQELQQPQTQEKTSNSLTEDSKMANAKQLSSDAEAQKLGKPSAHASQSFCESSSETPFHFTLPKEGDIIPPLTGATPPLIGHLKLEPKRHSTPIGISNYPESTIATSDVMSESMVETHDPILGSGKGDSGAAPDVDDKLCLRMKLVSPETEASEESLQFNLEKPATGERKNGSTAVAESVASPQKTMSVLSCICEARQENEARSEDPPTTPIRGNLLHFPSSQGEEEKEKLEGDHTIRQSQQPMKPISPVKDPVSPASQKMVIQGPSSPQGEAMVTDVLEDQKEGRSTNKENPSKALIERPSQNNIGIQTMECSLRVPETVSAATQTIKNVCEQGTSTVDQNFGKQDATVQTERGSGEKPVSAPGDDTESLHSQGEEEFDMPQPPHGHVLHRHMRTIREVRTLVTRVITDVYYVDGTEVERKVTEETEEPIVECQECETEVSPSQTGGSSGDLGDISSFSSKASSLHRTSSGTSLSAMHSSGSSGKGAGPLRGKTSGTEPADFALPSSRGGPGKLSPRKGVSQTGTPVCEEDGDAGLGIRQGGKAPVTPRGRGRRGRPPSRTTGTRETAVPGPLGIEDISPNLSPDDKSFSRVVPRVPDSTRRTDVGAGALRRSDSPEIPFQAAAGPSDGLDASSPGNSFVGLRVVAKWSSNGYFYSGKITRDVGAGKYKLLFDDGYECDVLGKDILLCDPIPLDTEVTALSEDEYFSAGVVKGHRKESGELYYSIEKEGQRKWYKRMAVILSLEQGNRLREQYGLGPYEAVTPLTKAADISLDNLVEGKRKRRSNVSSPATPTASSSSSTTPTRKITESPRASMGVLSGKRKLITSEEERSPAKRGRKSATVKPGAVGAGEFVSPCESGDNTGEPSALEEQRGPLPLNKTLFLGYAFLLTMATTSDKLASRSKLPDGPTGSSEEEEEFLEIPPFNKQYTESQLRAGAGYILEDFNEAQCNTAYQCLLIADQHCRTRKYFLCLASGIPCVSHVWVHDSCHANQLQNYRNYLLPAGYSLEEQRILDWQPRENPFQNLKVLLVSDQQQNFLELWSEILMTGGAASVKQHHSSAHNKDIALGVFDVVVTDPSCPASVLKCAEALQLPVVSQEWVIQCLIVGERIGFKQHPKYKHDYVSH
Test: affinity purification with mass spectrometry; anti-V5 immunoprecipitation (protein A resin, 4 h, 4°C) from lysate of RPE1 53BP1-V5 knock-in cells synchronised in prometaphase (thymidine, then nocodazole 10 h, mitotic shake-off); untagged RPE1 WT mitotic cells as control; LC-MS/MS
Settings: remark: other sources report otherwise

B1: USP28, Q96RU2 1-1077 (enzyme)
chain: MTAELQQDDAAGAADGHGSSCQMLLNQLREITGIQDPSFLHEALKASNGDITQAVSLLTDERVKEPSQDTVATEPSEVEGSAANKEVLAKVIDLTHDNKDDLQAAIALSLLESPKIQADGRDLNRMHEATSAETKRSKRKRCEVWGENPNPNDWRRVDGWPVGLKNVGNTCWFSAVIQSLFQLPEFRRLVLSYSLPQNVLENCRSHTEKRNIMFMQELQYLFALMMGSNRKFVDPSAALDLLKGAFRSSEEQQQDVSEFTHKLLDWLEDAFQLAVNVNSPRNKSENPMVQLFYGTFLTEGVREGKPFCNNETFGQYPLQVNGYRNLDECLEGAMVEGDVELLPSDHSVKYGQERWFTKLPPVLTFELSRFEFNQSLGQPEKIHNKLEFPQIIYMDRYMYRSKELIRNKRECIRKLKEEIKILQQKLERYVKYGSGPARFPLPDMLKYVIEFASTKPASESCPPESDTHMTLPLSSVHCSVSDQTSKESTSTESSSQDVESTFSSPEDSLPKSKPLTSSRSSMEMPSQPAPRTVTDEEINFVKTCLQRWRSEIEQDIQDLKTCIASTTQTIEQMYCDPLLRQVPYRLHAVLVHEGQANAGHYWAYIYNQPRQSWLKYNDISVTESSWEEVERDSYGGLRNVSAYCLMYINDKLPYFNAEAAPTESDQMSEVEALSVELKHYIQEDNWRFEQEVEEWEEEQSCKIPQMESSTNSSSQDYSTSQEPSVASSHGVRCLSSEHAVIVKEQTAQAIANTARAYEKSGVEAALSEVMLSPAMQGVILAIAKARQTFDRDGSEAGLIKAFHEEYSRLYQLAKETPTSHSDPRLQHVLVYFFQNEAPKRVVERTLLEQFADKNLSYDERSISIMKVAQAKLKEIGPDDMNMEEYKKWHEDYSLFRKVSVYLLTGLELYQKGKYQEALSYLVYAYQSNAALLMKGPRRGVKESVIALYRRKCLLELNAKAASLFETNDDHSVTEGINVMNELIIPCIHLIINNDISKDDLDAIEVMRNHWCSYLGQDIAENLQLCLGEFLPRLLDPSAEIIVLKEPPTIRPNSPYDLCSRFAAVMESIQGVSTVTVK
binding: binds

Results are given in words; binding and its absence hold for the method and conditions named. Binding seen in cells or lysates may run through a third protein. A yes stands for co-enrichment or nearness to the bait. Other partners may have been found. Where a sequence is shown, tags or fusion partners need not be part of it.
